Biological target: GSK3β (Mus musculus, UniProt Q9WV60)
Experiment: Effect of GSK3β inhibition on β-catenin and NFATc1/COX2 activation in mdMSCs (nuclear/cytoplasmic fractionation, Western blot)
Type: cell-based, mice
Protocol: Key experiments were replicated in a marrow derived mesenchymal stem cell line (mdMSC) generated from C56/BL6 wild-type mice using the procedure of A. Peister, et al. (Blood 103:1662-1668 (2004)). These cells readily undergo differentiation into osteogenic, adipogenic or alternative lineages using standard modifiers.
Nuclear and Cytoplasmic Protein Fractionation: The cells were washed with 1× phosphate-buffered saline, the cell pellet was re-suspended in 0.33 M sucrose, 10 mM Hepes, pH 7.4.1 mM MgCl^2, 0.1% Triton X-100 (pellet versus buffer, 1:5) and placed on ice for 15 minutes. After centrifugation at 3,000 rpm for 5 minutes, the supernatant was collected (cytoplasmic fraction). The pellet was re-suspended in 0.45 M NaCl and 10 mM Hepes, pH 7.4, and placed on ice for 15 minutes. After centrifugation at 12,000 rpm for 5 minutes, the nuclear fraction supernatant was collected.
Western blotting: Details were as in Sen, et al. (Endocrinology 42:6065-6075 (2008)). Antibodies included those directed against active β-catenin (Upstate, Temecula, CA), total […] (BD, Bedford, MA), total-GSK3β Chemicon, Billerica, MA), aP2, PPARγ, adiponectin, COX2, NFATc1 and tubulin (Santa Cruz, CA). Densitometry was determined using NIH ImageJ, 1.37v.
It was next determined whether LV induced inhibition of GSK30 was potent enough to modulate NFATc1/COX2 signaling. In MSC treated with LIV (two 20-minute sessions/day separated by 3 hours). […] This was also true when LIV was delivered to mdMSC: NFATc1 was increased in the nuclear fraction and COX2 rose in the cytoplasm.

The chains behind the UniProt entries cited, without tags or fusion partners. Where a name states a change or a piece, a line headed by the entry shows the natural chain unless it says otherwise.
UniProt Q9WV60: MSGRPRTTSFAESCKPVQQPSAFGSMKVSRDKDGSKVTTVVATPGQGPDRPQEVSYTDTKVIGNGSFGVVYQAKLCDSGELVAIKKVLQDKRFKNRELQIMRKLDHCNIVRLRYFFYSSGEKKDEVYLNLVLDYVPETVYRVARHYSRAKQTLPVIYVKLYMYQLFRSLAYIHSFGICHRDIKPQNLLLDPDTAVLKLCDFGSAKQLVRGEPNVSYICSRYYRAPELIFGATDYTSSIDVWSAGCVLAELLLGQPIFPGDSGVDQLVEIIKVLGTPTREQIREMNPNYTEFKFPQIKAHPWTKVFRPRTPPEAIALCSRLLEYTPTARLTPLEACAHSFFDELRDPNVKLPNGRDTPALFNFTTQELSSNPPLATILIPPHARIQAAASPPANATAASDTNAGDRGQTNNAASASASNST

SMILES: O=C1NC(=O)C(c2ccccc2[N+](=O)[O-])=C1Nc1ccc(O)c(Cl)c1 [SB415286]
- dose at which β-catenin was activated: 5 µM
- dose at which an effect on COX2 was seen (no effect seen below this dose): 10 µM
- NFATc1 localisation (preceding the COX2 effect): nuclear accumulation of NFATc1

— patent publication US11918822B2, “Compositions and methods for enhancing the biological response to chemical agents and physical stimuli” (The Research Foundation for the State University of New York, priority 2010, dated 2024)
